This note sets out measurements from publication PMC9729598 (Bioorganic Chemistry, 2022).

Molecules are shown by their SMILES.

A short description of the data set: in vitro. The settings on record: mouse, microsomes, pH 7.4.

In general, microsomal CLint refers to a measure of how fast metabolising enzymes remove a compound, apart from limits set by blood flow. A high value points to faster metabolism. For `CCCNCC(O)COc1ccccc1C(=O)CCc1ccccc1` (stereo not shown) [propafenone], the intrinsic metabolic clearance (microsomal CLint) came out at 202 µL/min/mg.
